Tests used:
[1] = tested on: Hyaluronic acid synthesis; conditions: allantoin at 100 μg/ml
[2] = stated as known; cited from earlier work

## NC(=O)NC1NC(=O)NC1=O (centres unmarked) [Allantoin, 2,5-dioxy-4-imidazolidinyl urea]
[1]
  Hyaluronic acid synthesis, Percent Increase vs. Untreated Control: 79.7%
[2]
  absorption through the skin: easily absorbed through the skin

— patent US20080108681A1 (Access Business Group International LLC, priority 2006, published 2008)
